## Primary screen of a compound library

From ChEMBL document CHEMBL3988442, “University of Dundee, Small-Polar-MMV Screening Library” (2021).

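Growth of Mycobacterium tuberculosis over 3 days (7H9 medium with glucose and tyloxapol); the read-out is not stated. Tested at 50 µM. Direction is inferred from retests: higher values go with more growth inhibition. About 69,000 compounds were tested under these conditions; 1.1% (about 760) showed 50% or more at least once.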

Each number is a percent effect as filed. How 0% and 100% were set is not recorded. Most values in the screen are low, and negative values occur. The compounds are a random part of those screened. Two or more numbers in one place are separate tests of the same structure; such repeats can differ widely.

compound	Percent Effect
O=C(NCc1ccco1)c1[nH]nc2c1CS(=O)(=O)CC2	-24.64%
CCc1ncc(CN2CCN(CCOC)CC2)cn1	-13.29%
Cc1cc(CN2CCN(S(=O)(=O)c3c(C)c(Cl)cc(C)c3Cl)CC2)on1	10.83%
CNc1nc(CNC(=O)Nc2ccc(OC(C)C)cc2C)cs1	-6.38%
CC(=O)C(C)CC(=O)N(Cc1cccc(C)c1)C(C)C (stereo unspecified)	16.35%
c1ccc(CCCN2CCCN(c3ncnc4[nH]ccc34)CC2)cc1	12.55%
COCCn1cnnc1CN(C)c1nc(N)nc2c1CCCC2	-7.72%
NC(=O)C(NC(=O)CSCc1ccc(Cl)s1)c1ccccc1 (stereo unspecified)	6.458% & -41.19%
Cc1noc(C2CCN(C(=O)CN(C)c3ccc(Cl)cn3)CC2)n1	-15.45%
COc1ccccc1N1CCC(CNS(=O)(=O)c2c(C)nn(C)c2C)C1 (stereo unspecified)	-4.447% & 6.415%
CCCc1nc(C(C)(C)NC(=O)C2CC(=O)N(CC3CC3)C2)no1 (stereo unspecified)	19.61%
NC(=O)C(CNC(=O)Cc1ccc(F)cc1)Cc1ccc(F)cc1 (stereo unspecified)	-6.536% & -20.91%
O=C(O)C(F)(F)F.c1cnn(Cc2nnc3n2CCCN(CC2CCOCC2)C3)c1	-30.15%
CC(C)c1noc(CN(Cc2cccnc2)C2CN3CCC2CC3)n1 (stereo unspecified)	-37.39%
O=C(c1cc(C2CC2)[nH]n1)N1CCN(Cc2ccc3c(c2)OCO3)CC1	66.25% & 88.71%
COC(=O)CCNC(=O)c1nc(NS(=O)(=O)c2ccccc2)sc1C	-24.03% & -6.651%
COCC(NC(=O)NCc1sc(C)nc1C)c1ccco1 (stereo unspecified)	-41.02%
[H][C@@]12COC[C@@H](C(=O)NC)[C@]1([H])CN(C(=O)c1ccc(OC)cc1)C2	-21.45% & -12.5%
CN(C)Cc1ccccc1CN(C)C(=O)c1ccoc1	-13.98%
[H][C@]12CC[C@]([H])(CN(S(=O)(=O)N(C)C)C1)N(C(=O)c1cnc(C)cn1)C2	-2.836%
[H][C@@]12C[C@@H](C)O[C@]1([H])CN(S(=O)(=O)c1ccc(F)cc1)C2	2.512%
COCCn1cc(NCc2cccc3cn[nH]c23)cn1	-15.2%
O=C(O)C(F)(F)F.O=C(O)C(F)(F)F.c1cncc(OCc2noc3c2CN(Cc2ccco2)CC3)c1	-3.25%
N#Cc1ccc(CN2CCCN(CCCn3cncn3)CC2)cc1	-10.28% & -8.502%
CN(C(=O)[C@H]1CSCN1C(=O)OC(C)(C)C)C1CC1	3.088%
CC(NC1CCN(CC(=O)N(C)C)CC1)c1cnn(C(C)C)c1 (stereo unspecified)	-5.15%
CCN(CC)C(=O)CS(=O)(=O)c1cc(OC)c(OC)cc1C	7.077%
[H][C@@]12COC[C@]1([H])[C@H](OCc1ccccn1)CN2Cc1ccoc1	-44%
CCN(CC(=O)NC)C(=O)c1sc(Cc2ccccc2)nc1C	7.651% & 9.352%
CN(C)CCN1CCCC12CCN(C(=O)c1ccoc1)CC2.O=C(O)C(F)(F)F.O=C(O)C(F)(F)F	-18.66%
C=C(C)CNCC1(O)CCCN(Cc2ccc(F)c(F)c2)C1=O (stereo unspecified)	14.66%
Cc1nccn1CC1CCCN1S(=O)(=O)Cc1ccccc1 (stereo unspecified)	-4.883%
CN1CCOC(CNCc2cccc(OCc3ccccn3)c2)C1 (stereo unspecified)	15.82%
OC[C@H]1CN(C2Cc3ccccc3C2)C[C@H]1CN1CCC(O)CC1	-11.64% & 11.3%
Cc1cc(N2CCC(NC(C)Cc3ccsc3)CC2)nc(N)n1 (stereo unspecified)	10.67%
CC(C)N(C)Cc1cnc2n1CCN(C(=O)Cc1ccsc1)C2.O=C(O)C(F)(F)F	-14.15%
O=C(c1c[nH]nc1-c1cccc(F)c1)N1CCNC(c2ccccc2)C1 (stereo unspecified)	-0.4503%
CC(C)COC(C)C(=O)NCc1ccccc1Cn1ccnc1 (stereo unspecified)	11.08%
Cc1ccc(C(=O)CN2C(=O)c3ccccc3CS2(=O)=O)c(C)c1	19.86% & 8.775%
CNC(=O)CN1CCC12CCN(C(=O)Cc1ccccc1)C2.O=C(O)C(F)(F)F (stereo unspecified)	8.7%
CN(C)C1Cc2ccccc2N(S(=O)(=O)c2cccc(C#N)c2)C1 (stereo unspecified)	9.539%
Cn1c(NCc2ccc(C(N)=O)cc2)nc2cc(Cl)ccc21	14.45% & 3.079%
Cc1ccc(C(=O)NS(=O)(=O)c2c(Cl)cccc2Cl)c(=O)[nH]1	3.804% & -14.31%
CCC(=O)N1CCc2c(O)nc(C3CCCCN3C(=O)C3CC3)nc2C1 (stereo unspecified)	8.117%
Cc1ccccc1SCC(=O)Nn1cnnc1	-2.385% & 11.59%
CN(CCOCC1CC1)C(=O)Cn1cccc(C(F)(F)F)c1=O	-24.18% & 2.444%
Fc1ccc2[nH]c(CO[C@H]3CN(CC4CC4)C[C@H]3F)nc2c1	-17.48% & 0.06689%
CC(C)NC(=O)Cc1cnc(-n2cccc2)s1	-2.395%
Clc1ccc2cccnc2c1CN1CCCCC1Cn1cncn1 (stereo unspecified)	30.1%
CNc1ccc(CC2CCCN(C(=O)c3cccc(C)n3)C2)nn1 (stereo unspecified)	-35.99%

For reference, 3 entries once more:

* CN1CCOC(CNCc2cccc(OCc3ccccn3)c2)C1 (stereo unspecified) : 15.82%
* Cc1ccc(C(=O)CN2C(=O)c3ccccc3CS2(=O)=O)c(C)c1 : 19.86% & 8.775%
* CC(C)COC(C)C(=O)NCc1ccccc1Cn1ccnc1 (stereo unspecified) : 11.08%